Some of the results follow.
What was measured:
Experiment in all cases: log2 fold change, soluble protein after heating vs DMSO (PISA); higher = thermal stabilisation; K562 lysate, 10 uM; active = over 0.2 and 3.5 SD of the protein, either way, in both replicates (recomputed)
vemurafenib = compound: CCCS(=O)(=O)Nc1ccc(F)c(C(=O)c2c[nH]c3ncc(-c4ccc(Cl)cc4)cc23)c1F [vemurafenib]
Summary of the method: (§1)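 The values are log-two fold changes in thermal stability compared with solvent controls and come from duplicates. They were obtained by TMTpro 16plex LC-MS/MS, with channel sums equalised, on the supernatant after 21,000xg for 90 min. That supernatant came from crude K562 extract at 1 mg/mL protein treated with 10 μM compound for 30 min, heated for 3 min across 48°C-58°C, pooled and brought to 0.5% NP-40 at 4°C.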

Protein sequences, listed by entry. Tags and fused reporters are not part of them. Lines headed by an entry give the natural chain unless they say otherwise; changes in a name come on top.
UniProt Q86SZ2: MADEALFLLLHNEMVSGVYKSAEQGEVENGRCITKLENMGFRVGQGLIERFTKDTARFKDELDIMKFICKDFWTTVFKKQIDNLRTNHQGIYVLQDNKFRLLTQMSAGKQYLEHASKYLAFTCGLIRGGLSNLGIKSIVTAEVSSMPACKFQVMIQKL
UniProt Q9Y4K3: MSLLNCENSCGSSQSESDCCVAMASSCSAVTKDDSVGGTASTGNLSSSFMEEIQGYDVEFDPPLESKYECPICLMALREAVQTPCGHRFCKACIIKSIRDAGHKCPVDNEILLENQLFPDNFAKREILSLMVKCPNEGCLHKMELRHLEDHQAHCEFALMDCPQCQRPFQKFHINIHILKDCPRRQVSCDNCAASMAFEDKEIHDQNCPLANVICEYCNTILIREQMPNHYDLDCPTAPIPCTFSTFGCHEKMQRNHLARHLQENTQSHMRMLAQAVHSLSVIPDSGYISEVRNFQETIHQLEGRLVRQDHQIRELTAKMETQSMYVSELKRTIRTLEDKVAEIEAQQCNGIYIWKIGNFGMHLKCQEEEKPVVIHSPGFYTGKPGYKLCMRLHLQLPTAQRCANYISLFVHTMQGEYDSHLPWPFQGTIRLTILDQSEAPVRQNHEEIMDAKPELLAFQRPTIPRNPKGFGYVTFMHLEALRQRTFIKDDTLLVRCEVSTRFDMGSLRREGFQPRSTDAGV
UniProt Q99614: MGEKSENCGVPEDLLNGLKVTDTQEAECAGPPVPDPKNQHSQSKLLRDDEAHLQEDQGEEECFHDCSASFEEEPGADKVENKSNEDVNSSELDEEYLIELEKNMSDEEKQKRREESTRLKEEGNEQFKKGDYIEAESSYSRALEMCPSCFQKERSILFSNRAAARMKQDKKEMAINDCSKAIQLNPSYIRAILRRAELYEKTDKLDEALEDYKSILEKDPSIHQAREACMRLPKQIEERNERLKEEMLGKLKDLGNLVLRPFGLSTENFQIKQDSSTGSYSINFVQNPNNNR
UniProt Q96Q11: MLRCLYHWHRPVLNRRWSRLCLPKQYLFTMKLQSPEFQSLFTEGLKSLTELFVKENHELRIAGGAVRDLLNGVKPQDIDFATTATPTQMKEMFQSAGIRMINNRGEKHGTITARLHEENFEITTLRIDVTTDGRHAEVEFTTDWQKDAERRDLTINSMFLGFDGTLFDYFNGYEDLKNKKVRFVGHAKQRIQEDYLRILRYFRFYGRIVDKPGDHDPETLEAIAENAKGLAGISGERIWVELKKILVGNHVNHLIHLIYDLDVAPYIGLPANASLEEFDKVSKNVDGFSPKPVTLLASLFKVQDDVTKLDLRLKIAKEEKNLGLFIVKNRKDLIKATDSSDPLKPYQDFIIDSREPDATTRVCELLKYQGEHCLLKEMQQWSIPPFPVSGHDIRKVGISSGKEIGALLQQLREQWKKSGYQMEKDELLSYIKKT
UniProt P33981: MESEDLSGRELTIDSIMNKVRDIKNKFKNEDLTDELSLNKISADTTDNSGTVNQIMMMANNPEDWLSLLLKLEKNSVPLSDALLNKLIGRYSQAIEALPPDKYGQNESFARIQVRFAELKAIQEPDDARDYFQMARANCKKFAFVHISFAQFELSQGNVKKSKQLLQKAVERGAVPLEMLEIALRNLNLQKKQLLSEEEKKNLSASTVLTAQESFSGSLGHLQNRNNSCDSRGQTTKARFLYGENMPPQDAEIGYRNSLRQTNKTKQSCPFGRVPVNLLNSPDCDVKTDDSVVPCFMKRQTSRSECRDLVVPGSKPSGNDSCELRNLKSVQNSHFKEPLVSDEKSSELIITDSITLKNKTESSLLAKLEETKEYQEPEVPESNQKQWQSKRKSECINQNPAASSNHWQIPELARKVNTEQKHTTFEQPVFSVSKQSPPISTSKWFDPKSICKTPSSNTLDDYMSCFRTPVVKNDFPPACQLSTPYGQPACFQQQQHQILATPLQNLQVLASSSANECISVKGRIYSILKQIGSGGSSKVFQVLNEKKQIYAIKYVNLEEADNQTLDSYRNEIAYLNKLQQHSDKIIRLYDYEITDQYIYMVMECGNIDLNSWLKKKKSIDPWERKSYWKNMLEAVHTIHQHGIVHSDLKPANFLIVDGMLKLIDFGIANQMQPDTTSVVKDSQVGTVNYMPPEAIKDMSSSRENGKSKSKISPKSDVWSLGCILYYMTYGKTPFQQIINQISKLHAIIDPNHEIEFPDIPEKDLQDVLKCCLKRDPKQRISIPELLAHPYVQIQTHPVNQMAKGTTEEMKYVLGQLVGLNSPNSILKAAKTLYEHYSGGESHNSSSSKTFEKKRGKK
UniProt P30536, whole entry, looked up: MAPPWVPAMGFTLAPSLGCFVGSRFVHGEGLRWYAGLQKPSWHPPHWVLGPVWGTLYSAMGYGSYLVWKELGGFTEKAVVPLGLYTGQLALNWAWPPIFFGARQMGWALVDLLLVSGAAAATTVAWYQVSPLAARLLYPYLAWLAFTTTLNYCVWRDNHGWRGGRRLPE
UniProt Q99816: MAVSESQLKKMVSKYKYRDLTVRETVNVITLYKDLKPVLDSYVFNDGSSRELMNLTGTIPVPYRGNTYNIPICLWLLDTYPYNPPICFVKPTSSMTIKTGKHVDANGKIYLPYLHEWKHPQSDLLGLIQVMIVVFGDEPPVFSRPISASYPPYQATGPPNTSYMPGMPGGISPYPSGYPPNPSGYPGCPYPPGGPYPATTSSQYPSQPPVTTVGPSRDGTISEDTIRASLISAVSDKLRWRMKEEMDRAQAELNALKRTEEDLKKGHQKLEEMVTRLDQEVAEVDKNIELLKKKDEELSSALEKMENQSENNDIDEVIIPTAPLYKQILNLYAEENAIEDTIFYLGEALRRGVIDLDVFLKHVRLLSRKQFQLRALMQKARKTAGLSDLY
UniProt Q9NUP7: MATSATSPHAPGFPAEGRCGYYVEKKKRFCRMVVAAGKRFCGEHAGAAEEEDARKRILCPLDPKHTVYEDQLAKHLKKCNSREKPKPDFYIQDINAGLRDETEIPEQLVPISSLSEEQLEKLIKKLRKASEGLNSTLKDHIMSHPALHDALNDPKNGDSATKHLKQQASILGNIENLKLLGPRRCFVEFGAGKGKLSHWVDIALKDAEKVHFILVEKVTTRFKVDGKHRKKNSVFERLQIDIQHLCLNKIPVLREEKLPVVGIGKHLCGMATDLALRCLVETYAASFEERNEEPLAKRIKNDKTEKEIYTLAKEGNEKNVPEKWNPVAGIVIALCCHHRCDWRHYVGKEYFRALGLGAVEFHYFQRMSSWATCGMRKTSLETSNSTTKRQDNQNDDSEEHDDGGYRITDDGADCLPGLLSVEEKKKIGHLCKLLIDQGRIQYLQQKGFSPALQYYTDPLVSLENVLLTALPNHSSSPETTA
UniProt Q5R3I4: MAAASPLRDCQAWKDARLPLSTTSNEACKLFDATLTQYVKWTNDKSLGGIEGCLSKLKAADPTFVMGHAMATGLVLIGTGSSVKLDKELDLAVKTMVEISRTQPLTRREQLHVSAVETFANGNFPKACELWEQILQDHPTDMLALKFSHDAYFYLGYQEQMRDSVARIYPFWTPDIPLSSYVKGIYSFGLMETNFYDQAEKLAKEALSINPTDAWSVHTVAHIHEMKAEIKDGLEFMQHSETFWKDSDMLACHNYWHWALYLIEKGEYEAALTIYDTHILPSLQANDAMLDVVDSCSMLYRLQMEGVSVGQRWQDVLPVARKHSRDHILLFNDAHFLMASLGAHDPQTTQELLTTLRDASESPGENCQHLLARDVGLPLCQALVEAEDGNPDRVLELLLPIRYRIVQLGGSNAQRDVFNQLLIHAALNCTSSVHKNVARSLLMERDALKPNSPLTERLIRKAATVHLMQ
UniProt Q8WW01: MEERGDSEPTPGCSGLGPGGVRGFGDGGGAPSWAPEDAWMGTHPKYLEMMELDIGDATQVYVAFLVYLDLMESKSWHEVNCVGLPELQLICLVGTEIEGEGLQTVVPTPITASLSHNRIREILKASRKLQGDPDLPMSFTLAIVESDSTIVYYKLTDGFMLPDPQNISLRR
UniProt Q9BQ61: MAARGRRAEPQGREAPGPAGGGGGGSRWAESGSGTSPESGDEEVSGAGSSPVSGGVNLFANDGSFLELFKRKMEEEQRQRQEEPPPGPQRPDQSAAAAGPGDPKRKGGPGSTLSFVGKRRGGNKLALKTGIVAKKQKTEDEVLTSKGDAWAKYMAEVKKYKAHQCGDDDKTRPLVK
UniProt Q9C037: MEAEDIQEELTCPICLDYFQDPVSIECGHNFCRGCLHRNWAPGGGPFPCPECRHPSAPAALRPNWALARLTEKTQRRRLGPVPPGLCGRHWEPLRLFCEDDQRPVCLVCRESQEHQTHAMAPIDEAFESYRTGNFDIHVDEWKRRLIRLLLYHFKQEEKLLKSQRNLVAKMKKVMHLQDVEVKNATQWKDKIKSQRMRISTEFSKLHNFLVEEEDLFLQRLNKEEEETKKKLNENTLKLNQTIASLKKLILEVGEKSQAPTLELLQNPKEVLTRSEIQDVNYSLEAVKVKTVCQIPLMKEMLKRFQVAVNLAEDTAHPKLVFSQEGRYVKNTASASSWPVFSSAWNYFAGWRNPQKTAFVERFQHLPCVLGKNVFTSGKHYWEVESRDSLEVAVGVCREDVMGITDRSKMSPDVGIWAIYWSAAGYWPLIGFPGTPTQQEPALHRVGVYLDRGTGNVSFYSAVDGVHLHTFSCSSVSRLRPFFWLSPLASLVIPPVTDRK
UniProt Q9Y2L5: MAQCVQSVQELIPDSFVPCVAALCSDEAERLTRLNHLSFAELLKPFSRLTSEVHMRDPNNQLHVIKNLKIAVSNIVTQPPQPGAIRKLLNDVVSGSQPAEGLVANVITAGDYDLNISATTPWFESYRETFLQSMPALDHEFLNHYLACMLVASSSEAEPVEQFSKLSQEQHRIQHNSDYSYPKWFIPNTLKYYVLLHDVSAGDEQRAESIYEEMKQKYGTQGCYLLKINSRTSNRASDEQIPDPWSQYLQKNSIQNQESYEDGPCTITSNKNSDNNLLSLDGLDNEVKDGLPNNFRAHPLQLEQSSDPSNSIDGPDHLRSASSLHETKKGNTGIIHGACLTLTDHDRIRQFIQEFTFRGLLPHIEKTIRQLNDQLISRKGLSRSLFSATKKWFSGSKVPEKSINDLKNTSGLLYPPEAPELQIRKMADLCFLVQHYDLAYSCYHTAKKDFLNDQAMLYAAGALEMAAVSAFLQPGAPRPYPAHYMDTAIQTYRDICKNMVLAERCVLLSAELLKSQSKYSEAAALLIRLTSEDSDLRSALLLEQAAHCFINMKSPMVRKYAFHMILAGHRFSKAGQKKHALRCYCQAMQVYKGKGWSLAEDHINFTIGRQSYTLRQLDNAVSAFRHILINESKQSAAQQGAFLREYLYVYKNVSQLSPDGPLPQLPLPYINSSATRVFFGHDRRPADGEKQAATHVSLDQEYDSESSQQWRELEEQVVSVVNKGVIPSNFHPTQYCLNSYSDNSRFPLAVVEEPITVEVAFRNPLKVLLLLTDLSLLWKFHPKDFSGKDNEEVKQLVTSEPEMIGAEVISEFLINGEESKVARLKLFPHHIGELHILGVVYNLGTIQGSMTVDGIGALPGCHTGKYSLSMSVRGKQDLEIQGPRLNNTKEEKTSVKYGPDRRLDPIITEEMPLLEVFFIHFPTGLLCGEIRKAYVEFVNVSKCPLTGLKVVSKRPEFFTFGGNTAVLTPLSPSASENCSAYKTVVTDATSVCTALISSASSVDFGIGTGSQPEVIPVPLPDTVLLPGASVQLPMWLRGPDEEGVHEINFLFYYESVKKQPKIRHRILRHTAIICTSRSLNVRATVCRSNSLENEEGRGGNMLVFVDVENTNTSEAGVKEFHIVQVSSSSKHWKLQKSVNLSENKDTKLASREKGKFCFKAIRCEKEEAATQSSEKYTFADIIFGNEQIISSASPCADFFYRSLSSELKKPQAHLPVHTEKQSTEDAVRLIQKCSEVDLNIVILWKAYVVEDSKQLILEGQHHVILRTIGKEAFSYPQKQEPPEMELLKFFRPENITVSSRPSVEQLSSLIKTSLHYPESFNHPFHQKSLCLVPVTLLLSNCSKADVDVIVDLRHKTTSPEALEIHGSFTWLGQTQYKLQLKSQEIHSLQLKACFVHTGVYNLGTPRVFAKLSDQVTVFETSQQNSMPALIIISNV

[1] = compound: CCCS(=O)(=O)Nc1ccc(F)c(C(=O)c2c[nH]c3ncc(Cl)cc23)c1F
Summary of the method: as §1

barasertib = compound: CCN(CCCOc1ccc2c(Nc3cc(CC(=O)Nc4cccc(F)c4)[nH]n3)ncnc2c1)CCOP(=O)(O)O [barasertib]
Summary of the method: as §1

[2] = compound: CC[C@@H]1C(=O)N(C)c2cnc(Nc3ccc(C(=O)NC4CCN(C)CC4)cc3OC)nc2N1C1CCCC1
Summary of the method: as §1

volasertib = compound: CC[C@@H]1C(=O)N(C)c2cnc(Nc3ccc(C(=O)N[C@H]4CC[C@H](N5CCN(CC6CC6)CC5)CC4)cc3OC)nc2N1C(C)C [volasertib]
Summary of the method: as §1

[3] = compound: CCn1c(C(=O)N(C2CC2)C2CC2)cc2c3c(ncn3C)c(Nc3cc(C)n(C)n3)nc21
Summary of the method: as §1

[4] = compound: CCn1cc(-c2ccnc3[nH]c(-c4cccc(CN(C)C)c4)cc23)c(-c2ccc(NC(=O)N(C)C)cc2)n1
Summary of the method: as §1

[5] = compound: CN1CCC(CNc2ccc3ncc(-c4cccc(OC(F)(F)F)c4)n3n2)CC1
Summary of the method: as §1

saracatinib = compound: CN1CCN(CCOc2cc(OC3CCOCC3)c3c(Nc4c(Cl)ccc5c4OCO5)ncnc3c2)CC1 [saracatinib]
Summary of the method: as §1

sotrastaurin = compound: CN1CCN(c2nc(C3=C(c4c[nH]c5ccccc45)C(=O)NC3=O)c3ccccc3n2)CC1 [sotrastaurin]
Summary of the method: as §1

alvocidib = compound: CN1CC[C@H](c2c(O)cc(O)c3c(=O)cc(-c4ccccc4Cl)oc23)[C@H](O)C1 [alvocidib]
Summary of the method: as §1

Tubastatin A = compound: CN1CCc2c(c3ccccc3n2Cc2ccc(C(=O)NO)cc2)C1 [Tubastatin A]
Summary of the method: as §1

[6] = compound: CNC(=O)C1=CC=CC=C1NC2=NC(=NC=C2Cl)NC3=C(C=C(C=C3)N4CCOCC4)OC
Summary of the method: as §1

defactinib = compound: CNC(=O)c1ccc(Nc2ncc(C(F)(F)F)c(NCc3nccnc3N(C)S(C)(=O)=O)n2)cc1 [defactinib]
Summary of the method: as §1

[7] = compound: CNc1nc(-c2ccc3c(N)n[nH]c3c2)cc(N2C[C@@H](C(=O)NC3CCCCC3)CC[C@H]2C)n1
Summary of the method: as §1

encorafenib = compound: COC(=O)N[C@@H](C)CNc1nccc(-c2cn(C(C)C)nc2-c2cc(Cl)cc(NS(C)(=O)=O)c2F)n1 [encorafenib]
Summary of the method: as §1

[8] = compound: COC(=O)[C@H](CCSC)NC(=O)C1=C(C=C(C=C1)NC[C@H](CS)N)C2=CC=CC=C2
Summary of the method: as §1

alisertib = compound: COc1cc(Nc2ncc3c(n2)-c2ccc(Cl)cc2C(c2c(F)cccc2OC)=NC3)ccc1C(=O)O [alisertib]
Summary of the method: as §1

[9] = compound: COc1cc2nc(-c3cc(F)ccc3O)nc(N[C@@H]3CNC[C@H]3C(C)(C)O)c2cc1OC
Summary of the method: as §1

gefitinib = compound: COc1cc2ncnc(Nc3ccc(F)c(Cl)c3)c2cc1OCCCN1CCOCC1 [gefitinib]
Summary of the method: as §1

Row | Target | log2 fold change (vemurafenib) | log2 fold change [1] | log2 fold change (barasertib) | log2 fold change [2] | log2 fold change (volasertib) | log2 fold change [3] | log2 fold change [4] | log2 fold change [5] | log2 fold change (saracatinib) | log2 fold change (sotrastaurin) | log2 fold change (alvocidib) | log2 fold change (Tubastatin A) | log2 fold change [6] | log2 fold change (defactinib) | log2 fold change [7] | log2 fold change (encorafenib) | log2 fold change [8] | log2 fold change (alisertib) | log2 fold change [9] | log2 fold change (gefitinib)
1 | TRAPPC6B (UniProt Q86SZ2) | inactive: 0.003 | inactive: -0.003 | inactive: 0.087 | inactive: -0.054 | inactive: 0.007 | inactive: 0.028 | inactive: 0 | inactive: 0.015 | inactive: -0.006 | inactive: -0.028 | inactive: -0.002 | inactive: 0 | inactive: 0.019 | inactive: -0.02 | inactive: -0.002 | inactive: -0.025 | inactive: 0.025 | inactive: 0.027 | inactive: 0.002 | inactive: -0.046
2 | TRAF6 (UniProt Q9Y4K3) | inactive: 0.009 | inactive: -0.006 | inactive: -0.023 | inactive: 0.016 | inactive: 0.027 | inactive: -0.007 | inactive: 0.117 | inactive: -0.045 | inactive: -0.013 | inactive: -0.018 | inactive: 0.026 | inactive: -0.003 | inactive: 0.017 | inactive: 0.026 | inactive: -0.01 | inactive: 0.015 | inactive: -0.041 | inactive: -0.01 | inactive: 0.029 | inactive: 0.011
3 | TTC1 (UniProt Q99614) | inactive: 0.033 | inactive: 0.011 | inactive: -0.004 | inactive: 0.058 | inactive: 0.02 | inactive: -0.034 | inactive: -0.024 | inactive: 0.047 | inactive: 0.008 | inactive: -0.019 | inactive: 0.025 | inactive: 0.053 | inactive: 0.017 | inactive: -0.012 | inactive: -0.01 | inactive: 0.009 | inactive: -0.105 | inactive: -0.01 | inactive: -0.019 | inactive: -0.011
4 | TRNT1 (UniProt Q96Q11) | inactive: -0.017 | inactive: -0.006 | inactive: -0.071 | inactive: -0.015 | inactive: -0.033 | inactive: 0.01 | inactive: -0.037 | inactive: -0.053 | inactive: -0.004 | inactive: 0.018 | inactive: 0.023 | inactive: -0.019 | inactive: 0.003 | inactive: 0.03 | inactive: -0.049 | inactive: 0.016 | inactive: -0.039 | inactive: -0.02 | inactive: 0.001 | inactive: -0.008
5 | TRRAP (UniProt Q9Y4A5) | inactive: -0.005 | inactive: 0.022 | inactive: 0.032 | inactive: 0.046 | inactive: -0.032 | inactive: -0.018 | inactive: -0.035 | inactive: 0.016 | inactive: 0.025 | inactive: 0.003 | inactive: 0.003 | inactive: -0.048 | inactive: -0.006 | inactive: 0.018 | inactive: -0.024 | inactive: 0.055 | inactive: 0.009 | inactive: -0.016 | inactive: -0.004 | inactive: -0.031
6 | TTK (UniProt P33981) | inactive: -0.009 | inactive: 0.02 | inactive: 0.06 | inactive: 0.089 | inactive: -0.026 | inactive: -0.048 | inactive: -0.018 | inactive: 0.01 | inactive: -0.037 | inactive: 0.072 | inactive: -0.004 | inactive: -0.141 | active: 0.616 | active: 0.434 | inactive: 0.101 | inactive: 0.004 | inactive: -0.02 | inactive: 0.078 | inactive: 0.103 | inactive: -0.102
7 | TSPO (UniProt P30536) | inactive: 0.021 | inactive: 0.006 | inactive: 0.057 | inactive: -0.094 | inactive: 0.05 | inactive: -0.002 | inactive: -0.223 | inactive: 0.054 | inactive: 0.07 | inactive: 0.047 | inactive: -0.026 | inactive: -0.091 | inactive: -0.012 | inactive: 0.001 | inactive: 0.05 | inactive: 0.005 | inactive: 0.051 | inactive: -0.005 | inactive: -0.017 | inactive: 0.05
8 | TSG101 (UniProt Q99816) | inactive: 0.008 | inactive: -0.006 | inactive: 0.011 | inactive: 0.023 | inactive: 0.001 | inactive: 0 | inactive: -0.253 | inactive: 0.076 | inactive: -0.008 | inactive: -0.012 | inactive: -0.077 | inactive: -0.02 | inactive: -0.011 | inactive: -0.023 | inactive: -0.056 | inactive: 0.012 | inactive: -0.071 | inactive: -0.013 | inactive: 0.017 | inactive: -0.003
9 | TRMT13 (UniProt Q9NUP7) | inactive: 0.03 | inactive: 0.031 | inactive: -0.059 | inactive: 0.071 | inactive: -0.055 | inactive: -0.102 | inactive: 0.028 | inactive: 0.015 | inactive: 0.033 | inactive: -0.054 | inactive: -0.014 | inactive: -0.003 | inactive: 0.095 | inactive: -0.027 | inactive: -0.011 | inactive: 0.061 | inactive: -0.006 | inactive: -0.015 | inactive: 0.013 | inactive: 0.029
10 | TRMT112 (UniProt Q9UI30) | inactive: 0.02 | inactive: -0.012 | inactive: 0.161 | inactive: -0.006 | inactive: 0.024 | inactive: 0.025 | inactive: 0.035 | inactive: -0.048 | inactive: 0.014 | inactive: -0.117 | inactive: 0.017 | inactive: 0.037 | inactive: -0.051 | inactive: 0.035 | inactive: 0.019 | inactive: 0.04 | inactive: -0.004 | inactive: 0.005 | inactive: -0.036 | inactive: -0.117
11 | TRMT61B (UniProt Q9BVS5) | inactive: 0.039 | inactive: 0.02 | inactive: -0.003 | inactive: 0.047 | inactive: 0.035 | inactive: -0.038 | inactive: -0.038 | inactive: 0.099 | inactive: -0.035 | inactive: 0.009 | inactive: 0.019 | inactive: 0.009 | inactive: 0.024 | inactive: 0.02 | inactive: 0.05 | inactive: 0.009 | inactive: 0 | inactive: 0.005 | inactive: 0.008 | inactive: -0.043
12 | TTC38 (UniProt Q5R3I4) | inactive: 0.035 | inactive: 0.03 | inactive: 0.102 | inactive: 0.004 | inactive: -0.001 | inactive: -0.047 | inactive: 0.189 | inactive: -0.181 | inactive: -0.026 | inactive: -0.027 | inactive: 0.121 | inactive: -0.013 | inactive: 0.004 | inactive: 0.001 | inactive: 0.034 | inactive: -0.045 | inactive: 0.013 | inactive: -0.046 | inactive: -0.018 | inactive: -0.069
13 | TSEN15 (UniProt Q8WW01) | inactive: 0.021 | inactive: 0.008 | inactive: 0.059 | inactive: -0.033 | inactive: -0.006 | inactive: -0.062 | inactive: -0.109 | inactive: 0.02 | inactive: 0 | inactive: 0.012 | inactive: 0.065 | inactive: 0.08 | inactive: 0.002 | inactive: 0.032 | inactive: 0.015 | inactive: 0.088 | inactive: 0.014 | inactive: 0.051 | inactive: -0.011 | inactive: -0.095
14 | TRIR (UniProt Q9BQ61) | inactive: -0.019 | inactive: 0 | inactive: -0.044 | inactive: 0.043 | inactive: 0.038 | inactive: 0.001 | inactive: -0.127 | inactive: 0.057 | inactive: 0.021 | inactive: 0.075 | inactive: -0.021 | inactive: 0.054 | inactive: -0.004 | inactive: -0.027 | inactive: 0.019 | inactive: -0.042 | inactive: -0.021 | inactive: -0.017 | inactive: -0.004 | inactive: -0.038
15 | TRIM4 (UniProt Q9C037) | inactive: -0.018 | inactive: 0.052 | inactive: -0.045 | inactive: -0.103 | inactive: -0.027 | inactive: 0.014 | inactive: 0.032 | inactive: -0.205 | inactive: 0.042 | inactive: 0.018 | inactive: -0.02 | inactive: -0.18 | inactive: 0.282 | inactive: -0.112 | inactive: -0.013 | inactive: 0.041 | inactive: -0.049 | inactive: 0.014 | inactive: 0.048 | inactive: -0.025
16 | TRAPPC8 (UniProt Q9Y2L5) | inactive: 0.003 | inactive: 0.011 | inactive: 0.018 | inactive: -0.049 | inactive: -0.063 | inactive: 0.032 | inactive: -0.003 | inactive: -0.01 | inactive: -0.021 | inactive: 0.012 | inactive: 0.013 | inactive: -0.093 | inactive: 0.028 | inactive: -0.001 | inactive: 0.018 | inactive: 0.002 | inactive: 0.024 | inactive: -0.012 | inactive: 0.016 | inactive: -0.047

Whole records as entered above. Values in the order: log2 fold change (vemurafenib)	log2 fold change [1]	log2 fold change (barasertib)	log2 fold change [2]	log2 fold change (volasertib)	log2 fold change [3]	log2 fold change [4]	log2 fold change [5]	log2 fold change (saracatinib)	log2 fold change (sotrastaurin)	log2 fold change (alvocidib)	log2 fold change (Tubastatin A)	log2 fold change [6]	log2 fold change (defactinib)	log2 fold change [7]	log2 fold change (encorafenib)	log2 fold change [8]	log2 fold change (alisertib)	log2 fold change [9]	log2 fold change (gefitinib)
TRMT112 (UniProt Q9UI30) as listed: inactive: 0.02	inactive: -0.012	inactive: 0.161	inactive: -0.006	inactive: 0.024	inactive: 0.025	inactive: 0.035	inactive: -0.048	inactive: 0.014	inactive: -0.117	inactive: 0.017	inactive: 0.037	inactive: -0.051	inactive: 0.035	inactive: 0.019	inactive: 0.04	inactive: -0.004	inactive: 0.005	inactive: -0.036	inactive: -0.117
TRRAP (UniProt Q9Y4A5) as listed: inactive: -0.005	inactive: 0.022	inactive: 0.032	inactive: 0.046	inactive: -0.032	inactive: -0.018	inactive: -0.035	inactive: 0.016	inactive: 0.025	inactive: 0.003	inactive: 0.003	inactive: -0.048	inactive: -0.006	inactive: 0.018	inactive: -0.024	inactive: 0.055	inactive: 0.009	inactive: -0.016	inactive: -0.004	inactive: -0.031

Source: the supplement of paper PMC10849652
